The supplement of paper PMC11542785
Counter-ions that a name gives are not always drawn. The list shows a part of the results. Most values come without repeats; read them as rough.

Tested on: Drosophila melanogaster DPAGT1 (Alg7) RNAi eye model
Experiment: eye size Z-score vs DMSO-treated DPAGT1 model flies; higher = larger eye (suppression of DPAGT1 phenotype)
Conditions: 5 uM

Row | SMILES | eye size Z-score | eye size Z-score (female)
1 | CN(C)CCN(Cc1ccc(Cl)cc1)c1ccccn1 [Chloropyramine hydrochloride] | -0.48 | –
2 | NS(=O)(=O)Cc1noc2ccccc12 [Zonisamide] | 1.22 | –
3 | COc1ccc([C@@H]2Sc3ccccc3N(CCN(C)C)C(=O)[C@@H]2OC(C)=O)cc1 [Diltiazem hydrochloride] | 0.06 | –
4 | Cc1cn([C@H]2C[C@H](N=[N+]=[N-])[C@@H](CO)O2)c(=O)[nH]c1=O [Zidovudine] | 0.03 | –
5 | Cc1ccc(C)c(OCCCC(C)(C)C(=O)O)c1 [Gemfibrozil] | 0.18 | –
6 | O=C(O)C[C@H](O)C[C@H](O)/C=C/c1c(C2CC2)nc2ccccc2c1-c1ccc(F)cc1 [Pitavastatin calcium] | -0.05 | –
7 | O=C(CCCN1CCC(O)(c2ccc(Cl)cc2)CC1)c1ccc(F)cc1 [Haloperidol] | 0.09 | –
8 | CNCCC=C1c2ccccc2C=Cc2ccccc21 [Norcyclobenzaprine] | 0.64 | –
9 | CC1(C)S[C@@H]2[C@H](NC(=O)[C@H](N)c3ccccc3)C(=O)N2[C@H]1C(=O)OC1OC(=O)c2ccccc21 (stereo not given in full) [Talampicillin hydrochloride] | 0.55 | –
10 | NC(=O)OCC(O)COc1ccc(Cl)cc1 (stereo not given) [Chlorphensin carbamate] | -0.33 | –
11 | COC(=O)CCc1ccc(OCC(O)CNC(C)C)cc1 (stereo not given) [Esmolol hydrochloride] | -0.62 | –
12 | CN1C(C(=O)Nc2ccccn2)=C(O)c2ccccc2S1(=O)=O [Piroxicam] | -1.2 | –
13 | COCCOC(=O)C1=C(C)NC(C)=C(C(=O)OC(C)C)C1c1cccc([N+](=O)[O-])c1 (stereo not given) [Nimodipine] | 0.17 | –
14 | C[C@]12CCC(=O)C=C1C=C[C@@H]1[C@@H]2CC[C@@]2(C)[C@H]1CC[C@@]21CCC(=O)O1 [Canrenone] | 0.41 | –
15 | CC(C)NC(=N)NC(=N)Nc1ccc(Cl)cc1 [Proguanil hydrochloride] | 1.08 | –
16 | COc1ccc2c3c1O[C@H]1C[C@@H](O)C=C[C@@]31CCN(C)C2 [Galanthamine hydrobromide] | -0.12 | –
17 | Cc1nnc(SCC2=C(C(=O)O)N3C(=O)[C@@H](NC(=O)Cn4cnnn4)[C@H]3SC2)s1 [Cefazolin sodium salt] | 1.28 | –
18 | Cc1cc(C#N)cc(C)c1Oc1nc(Nc2ccc(C#N)cc2)nc(N)c1Br [Etravirine] | 0.32 | –
19 | O=c1[nH]c(=O)n([C@H]2C[C@H](O)[C@@H](CO)O2)cc1C(F)(F)F [Trifluridine] | -0.03 | –
20 | CCCCCCCCNC(C)C(O)c1ccc(SC(C)C)cc1 (stereo not given) [Suloctidil] | 0.46 | –
21 | CC(=O)CC(c1ccc([N+](=O)[O-])cc1)c1c(O)c2ccccc2oc1=O (stereo not given) [Acenocoumarol] | 0.41 | –
22 | S=c1[nH]cnc2nc[nH]c12 [Mercaptopurine] | 0.25 | –
23 | CN(Cc1ccc(C(C)(C)C)cc1)Cc1cccc2ccccc12 [Butenafine hydrochloride] | – | 0.64
24 | COc1cc(NS(=O)(=O)c2ccc(N)cc2)nc(OC)n1 [Sulfadimethoxine] | -0.87 | –
25 | CC[N+](CC)(CC(=O)Nc1c(C)cccc1C)Cc1ccccc1 [Denatonium benzoate] | 0.88 | –

Of the compounds above, three contain an NH in an aromatic ring.
Row | SMILES | eye size Z-score | eye size Z-score (female)
4 | Cc1cn([C@H]2C[C@H](N=[N+]=[N-])[C@@H](CO)O2)c(=O)[nH]c1=O [Zidovudine] | 0.03 | –
19 | O=c1[nH]c(=O)n([C@H]2C[C@H](O)[C@@H](CO)O2)cc1C(F)(F)F [Trifluridine] | -0.03 | –
22 | S=c1[nH]cnc2nc[nH]c12 [Mercaptopurine] | 0.25 | –

(continued)

Row | SMILES | eye size Z-score | eye size Z-score (female)
26 | CC1(C)O[C@@H]2[C@@H](CO[C@@]3(COS(N)(=O)=O)OC(C)(C)O[C@@H]23)O1 [Topiramate] | -0.16 | –
27 | CN(C)c1cc(NC(=O)CNC(C)(C)C)c(O)c2c1C[C@H]1C[C@H]3[C@H](N(C)C)C(O)=C(C(N)=O)C(=O)[C@@]3(O)C(O)=C1C2=O [Tigecycline] | 0.43 | –
28 | Cc1cccc(Nc2ccncc2S(=O)(=O)NC(=O)NC(C)C)c1 [Torsemide] | 0.82 | –
29 | NC(=O)N1c2ccccc2CC(=O)c2ccccc21 [Oxcarbazepine] | -0.7 | –
30 | CC(C)Cn1cnc2c(N)nc3ccccc3c21 [Imiquimod] | -0.69 | –
31 | CC(=O)N[C@@H](CCC(N)=O)C(=O)O [Acetyl-L-glutamine] | -0.87 | –
32 | CN(C)CC/C=C1\c2ccccc2CSc2ccccc21 [Dosulepin hydrochloride] | 1.23 | –
33 | CC(N)(Cc1ccc(O)c(O)c1)C(=O)O (stereo not given) [(L) Methyldopa] | 0.02 | –
34 | CC(C)(Oc1ccc(Cl)cc1)C(=O)O [Clofibric acid] | 0.48 | –
35 | Cn1c(=O)c2c(ncn2CC(=O)O)n(C)c1=O [Acefylline] | 0.44 | –
36 | O=C(O)C1CSCN1 (stereo not given) [Timonacic] | 0.33 | –
37 | CO[C@H]1C[C@H](O[C@H]2[C@H](C)[C@@H](O[C@@H]3O[C@H](C)C[C@H](N(C)C)[C@H]3OC(C)=O)[C@@H](C)C[C@@]3(CO3)C(=O)[C@H](C)[C@@H](OC(C)=O)[C@@H](C)[C@@H](C)OC(=O)[C@@H]2C)O[C@@H](C)[C@@H]1OC(C)=O [Troleandomycin] | 0.69 | –
38 | Cc1cc(C(=O)NNCc2ccccc2)no1 [Isocarboxazid] | 1.11 | –
39 | COc1cc(OC)c(C(=O)CCCN2CCCC2)c(OC)c1 [Buflomedil hydrochloride] | – | -0.47
40 | N#CC(c1ccc(Cl)cc1)c1c(Cl)cc(-n2ncc(=O)[nH]c2=O)cc1Cl (stereo not given) [Diclazuril] | 0.05 | –
41 | CNC(=O)OCc1cccc(COC(=O)NC)n1 [Pyricarbate] | 0.24 | –
42 | CCN1C(=O)NC(c2ccccc2)C1=O (stereo not given) [Ethotoin] | 0.14 | –
43 | CN1CCC(=C2c3ccccc3CC(=O)c3sccc32)CC1 [Ketotifen fumarate] | -0.69 | –
44 | COc1ccccc1N1CCN(CC(O)COc2cccc3ccccc23)CC1 (stereo not given) [Naftopidil dihydrochloride] | 1.61 | –
45 | CN1CCCC(CC2c3ccccc3Sc3ccccc32)C1 (stereo not given) [Metixene hydrochloride] | -0.06 | –
46 | COc1ccc2c(c1)N(C[C@H](C)CN(C)C)c1ccccc1S2 [Methotrimeprazine maleate salt] | 0.28 | –
47 | CC(COc1ccccc1)NN (stereo not given) [Phenoxypropazine dihydrochloride] | 0.25 | –
48 | CCCN(CCC)C(=O)C(CCC(=O)O)NC(=O)c1ccccc1 (stereo not given) [Proglumide] | 1.1 | –
49 | CC(C)(Sc1cc(C(C)(C)C)c(O)c(C(C)(C)C)c1)Sc1cc(C(C)(C)C)c(O)c(C(C)(C)C)c1 [Probucol] | – | 0.56
50 | CS(=O)(=O)CCNCc1ccc(-c2ccc3ncnc(Nc4ccc(OCc5cccc(F)c5)c(Cl)c4)c3c2)o1 [Lapatinib] | -0.98 | –
